At least one read-out could not be matched to a standard name with certainty.
Tested on: serum calcium level
Test: serum calcium after intrarectal administration of calcitonin composition to rats
Format: in vivo, rat
From the text: Cacao butter (93 parts by weight) and 7 parts by weight of compound (168) or compound (173) were uniformly mixed, and (Asu^1.7)-eel calcitonin was gradually added and mixed to form a uniform composition. The composition was slightly warmed, and placed into a suppository container to form a suppository for rats having a diameter of about 3 mm and a length of about 6 mm. This suppository contained 0.7 MRC unit of calcitonin. The suppository was intrarectally administered to a rat, and the concentration of calcium in the blood serum after administration was measured by using a calcium measuring kit (made by Iatoron Co.).
Various […] were prepared from cacao butter, the various penetration enhancers shown in Table 12 and [Asu^1.7 ]-eel calcitonin, and tested in the same way as in Example 85.

[1] = 1 hr, Table 12, [Asu^1.7]-eel calcitonin in cacao butter with penetration enhancer
[2] = 2 hrs, Table 12, [Asu^1.7]-eel calcitonin in cacao butter with penetration enhancer
[3] = 3 hrs, Table 12, [Asu^1.7]-eel calcitonin in cacao butter with penetration enhancer
[4] = 5 hrs, Table 12, [Asu^1.7]-eel calcitonin in cacao butter with penetration enhancer
[5] = 1 hr, Table 11, [Asu^1.7]-eel calcitonin suppository, intrarectal, rat
[6] = 2 hrs, Table 11, [Asu^1.7]-eel calcitonin suppository, intrarectal, rat
[7] = 3 hrs, Table 11, [Asu^1.7]-eel calcitonin suppository, intrarectal, rat
[8] = 5 hrs, Table 11, [Asu^1.7]-eel calcitonin suppository, intrarectal, rat

SMILES | Percent decrease of the serum calcium level from that before administration [1] [%] | Percent decrease of the serum calcium level from that before administration [2] [%] | Percent decrease of the serum calcium level from that before administration [3] [%] | Percent decrease of the serum calcium level from that before administration [4] [%] | Percent decrease of the serum calcium level from that before administration [5] [%] | Percent decrease of the serum calcium level from that before administration [6] [%] | Percent decrease of the serum calcium level from that before administration [7] [%] | Percent decrease of the serum calcium level from that before administration [8] [%]
CCCCC(=O)OCC(COC(=O)[C@@H]1CCC(=O)N1)OC(=O)CCCC (stereo partly drawn) [Compound (158), 2,3-divaleryloxy-1-pyroglutamyloxypropane] | 28.1 | 29.0 | 15.3 | – | – | – | – | –
CCCCCCCCCCCCCCCC1OCC(COC(=O)C2CCC(=O)N2)O1 (stereo not drawn) [Compound (220), 2,3-dioxo-(pentadecyl)methylene-1-pyroglutamyloxypropane] | 20.3 | 34.0 | 18.1 | – | – | – | – | –
CCCCCCCC(=O)OCC(COC(=O)[C@@H]1CCC(=O)N1)OC(=O)CCCCCCC (stereo partly drawn) [Compound (162), 2,3-dioctanoyloxy-1-pyroglutamyloxypropane] | 31.9 | 29.9 | 19.5 | 1.9 | – | – | – | –
CCCCCCCCCCCCCCCCCC(=O)OCC(O)COC(=O)[C@@H]1CCC(=O)N1 (stereo partly drawn) [Compound (173), 2-hydroxy-3-octadecanoyloxy-1-pyroglutamyloxypropane] | 30.6 | 30.2 | 14.8 | 2.4 | 31.8 | 25.7 | 18.8 | 1.8
CCCCCCCCCCC=CCCCCCCCCCC(=O)OCC(O)COC(=O)[C@@H]1CCC(=O)N1 (stereo partly drawn) [Compound (192), 3-(11-docosenoyloxy)-2-hydroxy-1-pyroglutamyloxypropane] | 30.0 | 31.1 | 16.6 | 2.6 | – | – | – | –
CCCCCCCC=CCCCCCCCCOCC(COC(=O)[C@@H]1CCC(=O)N1)OCCCCCCCCC=CCCCCCCC (stereo partly drawn) [Compound (142), 2,3-di(9-heptadecenyloxy)-1-pyroglutamyloxypropane] | 32.4 | 28.7 | 15.8 | 2.3 | – | – | – | –
CCCCCCCCCCCCOCC(O)COC(=O)[C@@H]1CCC(=O)N1 (stereo partly drawn) [Compound (108), 3-dodecyloxy-2-hydroxy-1-pyroglutamyloxypropane] | 30.6 | 27.5 | 15.5 | 2.4 | – | – | – | –
CCC=CC(=O)OCC(O)COC(=O)[C@@H]1CCC(=O)N1 (stereo partly drawn) [Compound (184), 2-hydroxy-3(2-pentenoyloxy)-1-pyroglutamyloxypropane] | 29.8 | 25.7 | 14.8 | 3.5 | – | – | – | –
CC1(C)OCC(COC(=O)C2CCC(=O)N2)O1 (stereo not drawn) [Compound (202), 2,3-dioxo-(dimethyl)methylene-1-pyroglutamyloxypropane] | 35.2 | 25.2 | 13.8 | 2.5 | – | – | – | –
CCCCCCOCC(O)COC(=O)[C@@H]1CCC(=O)N1 (stereo partly drawn) [Compound (104), 3-hexyloxy-2-hydroxy-1-pyroglutamyloxypropane] | 30.8 | 28.3 | 20.4 | – | – | – | – | –
CCCCCCCCCCCCCCCCCCOCC(COC(=O)[C@@H]1CCC(=O)N1)OCCCCCCCCCCCCCCCCCC (stereo partly drawn) [Compound (124), 2,3-dioctadecyloxy-1-pyroglutamyloxypropane] | 33.0 | 30.4 | 16.0 | 1.9 | – | – | – | –
CCCCCCCC/C=C\CCCCCCCC(=O)OCC(O)COC(=O)[C@@H]1CCC(=O)N1 (stereo partly drawn) [Compound (168), 2-hydroxy-3-oleoyloxy-1-pyroglutamyloxypropane] | – | – | – | – | 33.0 | 26.9 | 17.1 | 1.4
CCCCCCCCC1(CCCCCCCC)OCC(COC(=O)C2CCC(=O)N2)O1 (stereo not drawn) [Compound (214), 2,3-dioxo-(dioctyl)methylene-1-pyroglutamyloxypropane] | 33.4 | 28.9 | 17.2 | 1.4 | – | – | – | –
CCCCCCCCOCC(COC(=O)[C@@H]1CCC(=O)N1)OCCCCCCCC (stereo partly drawn) [Compound (122), 2,3-dioctyloxy-1-pyroglutamyloxypropane] | 31.7 | 26.8 | 17.7 | 2.3 | – | – | – | –
CCCCCCCC/C=C\CCCCCCCC(=O)OCC(COC(=O)C1CCC(=O)N1)OC(=O)CCCCCCC/C=C\CCCCCCCC (stereo not drawn) [Compound (170), 2,3,-dioleoyloxy-1-pyroglutamyloxypropane] | 29.9 | 30.6 | 17.7 | – | – | – | – | –
CCC=CCCCCCCCCOCC(O)COC(=O)[C@@H]1CCC(=O)N1 (stereo partly drawn) [Compound (134), 3-(9-dodecenyloxy)-2-hydroxy-1-pyroglutamyloxypropane] | 31.1 | 30.0 | 14.0 | 2.4 | – | – | – | –
CCCCCCCC(=O)OCC(O)COC(=O)[C@@H]1CCC(=O)N1 (stereo partly drawn) [Compound (160), 2-hydroxy-3-octanoyloxy-1-pyroglutamyloxypropane] | 36.5 | 28.0 | 15.5 | – | – | – | – | –
CCCCCCCCCCCC(=O)OCC(O)COC(=O)[C@@H]1CCC(=O)N1 (stereo partly drawn) [Compound (172), 3-dodecanoyloxy-2-hydroxy-1-pyroglutamyloxypropane] | 32.7 | 30.8 | 20.1 | 1.8 | – | – | – | –
CCCCCCCCCCCCCCCCCCOCC(O)COC(=O)[C@@H]1CCC(=O)N1 (stereo partly drawn) [Compound (112), 2-hydroxy-3-octadecyloxy-1-pyroglutamyloxypropane] | 31.2 | 29.2 | 21.5 | 2.6 | – | – | – | –
CCCCC(=O)OCC(O)COC(=O)[C@@H]1CCC(=O)N1 (stereo partly drawn) [Compound (156), 2-hydroxy-3-valeryloxy-1-pyroglutamyloxypropane] | 31.0 | 27.5 | 18.4 | – | – | – | – | –

From US4746675A, “External pharmaceutical composition” (Teijin Limited, priority 1983, dated 1988)
